Source: patent US10206937B2, “Boronic acid derivatives and therapeutic uses thereof” (Qpex Biopharma, Inc., priority 2014, dated 2019)
This continues a long series; more values of the same kind are listed elsewhere.

Test system: strains of Enterobacteriaceae producing various carbapenemases (class A, D and B; 169 strains)
Experiment: Meropenem or tebipenem potentiation by Compounds 97 or 62 (MIC)
Assay type: cell-based
Description: The largest panel of clinical isolates expressing class A, D and B carbapenemases alone or in combination with other beta-lactamases (169 strains) was used to evaluate carbapenem potentiation activity of Compounds 97 and 62. MIC for meropenem and tebipenem of these strains were determined either alone or in the presence of Compounds 97 or 62, respectively, at a fixed concentration of 8 μg/ml in the growth media.

## C[C@@H](O)[C@H]1C(=O)N2C(C(=O)O)=C(S[C@@H]3CN[C@H](C(=O)N(C)C)C3)[C@H](C)[C@H]12 [M]
CF1012 Citrobacter freundii KPC-2
  Meropenem MIC alone (M): Y (MIC of 1 μg/mL to 10 μg/mL)
CF1021 Citrobacter freundii CMY-type, VIM-1
  Meropenem MIC alone (M): Y (MIC of 1 μg/mL to 10 μg/mL)
EA1019 Enterobacter aerogenes SHV-5, VIM-1
  Meropenem MIC alone (M): Z (MIC of greater than 10 μg/mL)
EC1007 Escherichia coli KPC-3
  Meropenem MIC alone (M): Y (MIC of 1 μg/mL to 10 μg/mL)
EC1064 Escherichia coli NDM-1, CMY-6, CTX-M-15
  Meropenem MIC alone (M): Z (MIC of greater than 10 μg/mL)
EC1065 Escherichai coli IMP-1 CMY-2
  Meropenem MIC alone (M): Y (MIC of 1 μg/mL to 10 μg/mL)
EC1068 Escherichia coli VIM-1
  Meropenem MIC alone (M): Z (MIC of greater than 10 μg/mL)
EC1073 Escherichia coli OXA-48
  Meropenem MIC alone (M): Z (MIC of greater than 10 μg/mL)
EC1074 Escherichia coli KPC-2, SHV-12
  Meropenem MIC alone (M): Z (MIC of greater than 10 μg/mL)
EC1076 Escherichia coli NDM-1 CMY-2
  Meropenem MIC alone (M): Z (MIC of greater than 10 μg/mL)
ECL1004 Enterobacter cloacae NMC-A
  Meropenem MIC alone (M): Z (MIC of greater than 10 μg/mL)
ECL1026 Enterobacter cloacae KPC-2, TEM-1
  Meropenem MIC alone (M): Y (MIC of 1 μg/mL to 10 μg/mL)
ECL1036 Enterobacter cloacae KPC-3, TEM-1
  Meropenem MIC alone (M): Y (MIC of 1 μg/mL to 10 μg/mL)
ECL1058 Enterobacter cloacae KPC-3, SHV-11, TEM-1
  Meropenem MIC alone (M): Y (MIC of 1 μg/mL to 10 μg/mL)
ECL1059 Enterobacter cloacae KPC-3, SHV-12, TEM-1
  Meropenem MIC alone (M): Y (MIC of 1 μg/mL to 10 μg/mL)
ECL1061 Enterobacter cloacae KPC-3, Hyper AmpC expression
  Meropenem MIC alone (M): Y (MIC of 1 μg/mL to 10 μg/mL)
ECL1079 Enterobacter cloacae KPC TEM
  Meropenem MIC alone (M): Z (MIC of greater than 10 μg/mL)
ECL1082 Enterobacter cloacae VIM-1
  Meropenem MIC alone (M): Y (MIC of 1 μg/mL to 10 μg/mL)
KP1001 Klebsiella pneumoniae KPC TEM SHV
  Meropenem MIC alone (M): Z (MIC of greater than 10 μg/mL)
KP1002 Klebsiella pneumoniae KPC TEM SHV
  Meropenem MIC alone (M): Z (MIC of greater than 10 μg/mL)
KP1003 Klebsiella pneumoniae KPC TEM SHV
  Meropenem MIC alone (M): Z (MIC of greater than 10 μg/mL)
KP1004 Klebsiella pneumoniae KPC-2, TEM-1, SHV-11
  Meropenem MIC alone (M): Z (MIC of greater than 10 μg/mL)
KP1008 Klebsiella pneumoniae KPC-2
  Meropenem MIC alone (M): Y (MIC of 1 μg/mL to 10 μg/mL)
KP1014 Klebsiella pneumoniae Vim-1, TEM, SHV
  Meropenem MIC alone (M): Z (MIC of greater than 10 μg/mL)
KP1015 Klebsiella pneumoniae VIM-1, SHV
  Meropenem MIC alone (M): Z (MIC of greater than 10 μg/mL)
KP1082 Klebsiella pneumoniae KPC-2, SHV-1
  Meropenem MIC alone (M): Z (MIC of greater than 10 μg/mL)
KP1083 Klebsiella pneumoniae KPC-3, SHV-1, TEM-1
  Meropenem MIC alone (M): Z (MIC of greater than 10 μg/mL)
KP1084 Klebsiella pneumoniae KPC-3, SHV-11, TEM-1
  Meropenem MIC alone (M): Z (MIC of greater than 10 μg/mL)
KP1086 Klebsiella pneumoniae TEM, SHV, CTX-M-15, OXA-48
  Meropenem MIC alone (M): Z (MIC of greater than 10 μg/mL)
KP1087 Klebsiella pneumoniae KPC-2, CTX-M-15, SHV-11, TEM-1
  Meropenem MIC alone (M): Z (MIC of greater than 10 μg/mL)
KP1088 Klebsiella pneumoniae KPC-3, SHV-11, TEM-1
  Meropenem MIC alone (M): Z (MIC of greater than 10 μg/mL)
KP1089 Klebsiella pneumoniae TEM, SHV, CTX-M-15, OXA-181
  Meropenem MIC alone (M): Y (MIC of 1 μg/mL to 10 μg/mL)
KP1092 Klebsiella pneumoniae SHV-11, SHV-12, TEM-1, KPC
  Meropenem MIC alone (M): Z (MIC of greater than 10 μg/mL)
KP1093 Klebsiella pneumoniae KPC-3 TEM SHV-11
  Meropenem MIC alone (M): Z (MIC of greater than 10 μg/mL)
KP1094 Klebsiella pneumoniae KPC-2 TEM-1 LEN-17
  Meropenem MIC alone (M): Z (MIC of greater than 10 μg/mL)
KP1095 Klebsiella pneumoniae KPC-2 TEM-1 SHV-1
  Meropenem MIC alone (M): Y (MIC of 1 μg/mL to 10 μg/mL)
KP1096 Klebsiella pneumoniae KPC-2 TEM-181 SHV-11
  Meropenem MIC alone (M): Z (MIC of greater than 10 μg/mL)
KP1097 Klebsiella pneumoniae IMP-1 SHV
  Meropenem MIC alone (M): Z (MIC of greater than 10 μg/mL)
KP1098 Klebsiella pneumoniae IMP-26 TEM SHV
  Meropenem MIC alone (M): Z (MIC of greater than 10 μg/mL)
KP1099 Klebsiella pneumoniae KPC-2 SHV
  Meropenem MIC alone (M): Z (MIC of greater than 10 μg/mL)
KP1100 Klebsiella pneumoniae KPC-3 TEM SHV
  Meropenem MIC alone (M): Z (MIC of greater than 10 μg/mL)
KP1101 Klebsiella pneumoniae KPC-2 TEM SHV
  Meropenem MIC alone (M): Z (MIC of greater than 10 μg/mL)
KP1102 Klebsiella pneumoniae KPC-3 TEM SHV
  Meropenem MIC alone (M): Z (MIC of greater than 10 μg/mL)
KP1104 Klebsiella pneumoniae KPC, TEM
  Meropenem MIC alone (M): Z (MIC of greater than 10 μg/mL)
KP1105 Klebsiella pneumoniae KPC, SHV, TEM
  Meropenem MIC alone (M): Z (MIC of greater than 10 μg/mL)
KP1237 Klebsiella pneumoniae OXA-48 TEM SHV CTX-M-15
  Meropenem MIC alone (M): Z (MIC of greater than 10 μg/mL)
KP1239 Klebsiella pneumoniae OXA-48 SHV
  Meropenem MIC alone (M): Z (MIC of greater than 10 μg/mL)
KP1240 Klebsiella pneumoniae OXA-181 SHV CTX-M-15
  Meropenem MIC alone (M): Z (MIC of greater than 10 μg/mL)
KP1241 Klebsiella pneumoniae OXA-181 TEM SHV CTX-M-15
  Meropenem MIC alone (M): Z (MIC of greater than 10 μg/mL)
KP1242 Klebsiella pneumoniae KPC-2, SHV-12 TEM
  Meropenem MIC alone (M): Z (MIC of greater than 10 μg/mL)
KP1243 Klebsiella pneumoniae KPC-2 SHV VIM-1
  Meropenem MIC alone (M): Z (MIC of greater than 10 μg/mL)
KP1244 Klebsiella pneumoniae KPC SHV TEM + 1.9 kb
  Meropenem MIC alone (M): Z (MIC of greater than 10 μg/mL)
KP1245 Klebsiella pneumoniae KPC SHV TEM + 1.9 kb
  Meropenem MIC alone (M): Z (MIC of greater than 10 μg/mL)
KP1246 Klebsiella pneumoniae KPC SHV TEM + 1.9 kb
  Meropenem MIC alone (M): Z (MIC of greater than 10 μg/mL)
KP1247 Klebsiella pneumoniae IMP TEM SHV
  Meropenem MIC alone (M): Z (MIC of greater than 10 μg/mL)
KP1248 Klebsiella pneumoniae OXA-232 SHV CTX-M-15
  Meropenem MIC alone (M): Z (MIC of greater than 10 μg/mL)
KP1249 Klebsiella pneumoniae OXA-232 SHV
  Meropenem MIC alone (M): Z (MIC of greater than 10 μg/mL)
KP1250 Klebsiella pneumoniae NDM-1 TEM SHV SMY-2 CTX-M-15
  Meropenem MIC alone (M): Z (MIC of greater than 10 μg/mL)
KP1252 Klebsiella pneumoniae KPC TEM SHV
  Meropenem MIC alone (M): Z (MIC of greater than 10 μg/mL)
KPM1123 Klebsiella pneumoniae KPC-2 TEM SHV
  Meropenem MIC alone (M): Z (MIC of greater than 10 μg/mL)
KPM1202 Klebsiella pneumoniae KPC SHV TEM
  Meropenem MIC alone (M): Z (MIC of greater than 10 μg/mL)
KPM1203 Klebsiella pneumoniae KPC SHV TEM
  Meropenem MIC alone (M): Y (MIC of 1 μg/mL to 10 μg/mL)
KPM1344 Klebsiella pneumoniae VIM-1
  Meropenem MIC alone (M): Y (MIC of 1 μg/mL to 10 μg/mL)
KPM1345 Klebsiella pneumoniae VIM-1 SHV
  Meropenem MIC alone (M): Z (MIC of greater than 10 μg/mL)
KPM1346 Klebsiella pneumoniae NDM-1 TEM SHV CTX-M-15 CMY
  Meropenem MIC alone (M): Z (MIC of greater than 10 μg/mL)
KPM1347 Klebsiella pneumoniae NDM-1 SHV CTX-M-15
  Meropenem MIC alone (M): Z (MIC of greater than 10 μg/mL)
KX1017 Klebsiella oxytoca KPC-2, OXA-2, SHV-30
  Meropenem MIC alone (M): Y (MIC of 1 μg/mL to 10 μg/mL)
KX1018 Klebsiella oxytoca KPC-2, SHV-40, OXY-1
  Meropenem MIC alone (M): Y (MIC of 1 μg/mL to 10 μg/mL)
KX1019 Klebsiella oxytoca KPC-2, OXA-2
  Meropenem MIC alone (M): Y (MIC of 1 μg/mL to 10 μg/mL)
